Values are relative to the signal before dosing, not to a vehicle control; the signal also falls without drug.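 Fibroblast labels denote human fibroblasts, mainly primary ones from uterus (C12385, HUF), lung (H6013), bone (Hs27A), adrenal (HADF) and skin (WS1), plus mammary HMF and breast cancer-associated Hs343T. Cancer cells are basal-like or mesenchymal-like triple-negative breast cancer lines. A hit is a response shift exceeding 3x replicate standard deviation. The tissue of the other fibroblasts is not given here.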
Tested on: Hs578T
Test: relative JC-1 red fluorescence (viability) vs pre-drug, coculture with fibroblast (fraction); higher = more viable cancer cells
Procedure: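 JC-1 labelled TNBC cells cocultured 1:1 (1,500 cells each) with CellTrace Violet stained primary or stromal fibroblasts in 384-well plates in FluoroBrite medium, treated with one of 42 anticancer drugs at 0.1, 1, 10 or 100 uM. JC-1 red fluorescence (mitochondrial integrity in cancer cells only) was read by plate reader every 8 h for 72 h. Values are normalised to each well's pre-drug value. The stock of one drug was tenfold lower, so its dose labels may be too high.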

C[C@]12CC[C@@H]3c4ccc(O)cc4C[C@@H](CCCCCCCCC[S+]([O-])CCCC(F)(F)C(F)(F)F)[C@H]3[C@@H]1CC[C@@H]2O (stereo partly drawn) [Fulvestrant]
relative JC-1 red fluorescence
Conditions | 8 h | 16 h | 24 h | 32 h | 40 h | 48 h | 56 h | 64 h | 72 h
0.1 µM | 0.922 | 0.837 | 0.79 | 0.768 | 0.707 | 0.668 | 0.64 | 0.599 | 0.579
1 µM | 0.8687 | 0.7924 | 0.7623 | 0.728 | 0.67219 | 0.6285 | 0.61 | 0.5691 | 0.548

relative JC-1 red fluorescence
Conditions | 8 h | 16 h | 24 h | 32 h | 40 h | 48 h | 56 h | 64 h | 72 h
0.1 µM, coculture fibroblast: C12385 | 0.8286 | 0.737 | 0.7195 | 0.623 | 0.561 | 0.535 | 0.511 | 0.506 | 0.506
0.1 µM, coculture fibroblast: H6013 | 0.9 | 0.84 | 0.789 | 0.767 | 0.734 | 0.71839 | 0.69 | 0.693 | 0.655
0.1 µM, coculture fibroblast: H6019 | 0.796 | 0.712 | 0.689 | 0.609 | 0.577 | 0.555 | 0.526 | 0.508 | 0.485
0.1 µM, coculture fibroblast: H6076 | 0.894 | 0.824 | 0.7791 | 0.7761 | 0.744 | 0.757 | 0.75 | 0.759 | 0.767
0.1 µM, coculture fibroblast: H6231 | 0.88 | 0.78 | 0.6984 | 0.6634 | 0.5921 | 0.5628 | 0.514 | 0.4918 | 0.47527
0.1 µM, coculture fibroblast: HADF | 0.889 | 0.822 | 0.773 | 0.728 | 0.7 | 0.676 | 0.645 | 0.638 | 0.609
0.1 µM, coculture fibroblast: HCFa | 0.887 | 0.849 | 0.775 | 0.729 | 0.671 | 0.643 | 0.602 | 0.573 | 0.526
0.1 µM, coculture fibroblast: HCPF | 0.93 | 0.831 | 0.784 | 0.769 | 0.71 | 0.682 | 0.655 | 0.617 | 0.604
0.1 µM, coculture fibroblast: HHSteC | 0.8892 | 0.813 | 0.735 | 0.69 | 0.619 | 0.582 | 0.548 | 0.523 | 0.48
0.1 µM, coculture fibroblast: HMF | 0.8677 | 0.792 | 0.74 | 0.737 | 0.683 | 0.669 | 0.635 | 0.618 | 0.605
0.1 µM, coculture fibroblast: HPFa | 0.93396 | 0.892 | 0.79979 | 0.73 | 0.676 | 0.635 | 0.5881 | 0.5603 | 0.504
0.1 µM, coculture fibroblast: HUF | 0.8677 | 0.782 | 0.733 | 0.626 | 0.568 | 0.534 | 0.5 | 0.494 | 0.479
0.1 µM, coculture fibroblast: Hs27A | 0.886 | 0.84 | 0.799 | 0.746 | 0.682 | 0.658 | 0.619 | 0.606 | 0.554
0.1 µM, coculture fibroblast: Hs343T | 0.882 | 0.789 | 0.744 | 0.75 | 0.693 | 0.678 | 0.649 | 0.637 | 0.646
0.1 µM, coculture fibroblast: WS1 | 0.841 | 0.74593 | 0.716 | 0.639 | 0.589 | 0.582 | 0.556 | 0.559 | 0.562
1 µM, coculture fibroblast: C12385 | 0.799 | 0.721 | 0.681 | 0.618 | 0.569 | 0.541 | 0.516 | 0.507 | 0.497
1 µM, coculture fibroblast: H6013 | 0.876 | 0.8547 | 0.827 | 0.804 | 0.765 | 0.758 | 0.735 | 0.727 | 0.691
1 µM, coculture fibroblast: H6019 | 0.751 | 0.6888 | 0.674 | 0.588 | 0.564 | 0.538 | 0.51 | 0.4796 | 0.4545
1 µM, coculture fibroblast: H6076 | 0.927 | 0.875 | 0.831 | 0.814 | 0.762 | 0.747 | 0.7283 | 0.714 | 0.708
1 µM, coculture fibroblast: H6231 | 0.897 | 0.811 | 0.7763 | 0.733 | 0.68 | 0.645 | 0.604 | 0.578 | 0.564
1 µM, coculture fibroblast: HADF | 0.907 | 0.86 | 0.822 | 0.788 | 0.765 | 0.747 | 0.715 | 0.721 | 0.684
1 µM, coculture fibroblast: HCFa | 0.863 | 0.853 | 0.795 | 0.754 | 0.695 | 0.673 | 0.631 | 0.608 | 0.56
1 µM, coculture fibroblast: HCPF | 0.918 | 0.844 | 0.8088 | 0.774 | 0.727 | 0.702 | 0.683 | 0.643 | 0.621
1 µM, coculture fibroblast: HHSteC | 0.857 | 0.806 | 0.752 | 0.708 | 0.6603 | 0.629 | 0.602 | 0.579 | 0.535
1 µM, coculture fibroblast: HMF | 0.895 | 0.86 | 0.826 | 0.801 | 0.747 | 0.718 | 0.691 | 0.667 | 0.649
1 µM, coculture fibroblast: HPFa | 0.913 | 0.841 | 0.776 | 0.728 | 0.689 | 0.67 | 0.63 | 0.613 | 0.576
1 µM, coculture fibroblast: HUF | 0.86 | 0.744 | 0.746 | 0.662 | 0.617 | 0.591 | 0.569 | 0.563 | 0.557
1 µM, coculture fibroblast: Hs27A | 0.9024 | 0.894 | 0.88 | 0.863 | 0.842 | 0.842 | 0.819 | 0.836 | 0.784
1 µM, coculture fibroblast: Hs343T | 0.864 | 0.775 | 0.7502 | 0.741 | 0.692 | 0.67429 | 0.66 | 0.648 | 0.646
1 µM, coculture fibroblast: WS1 | 0.824 | 0.739 | 0.715 | 0.637 | 0.592 | 0.584 | 0.562 | 0.556 | 0.559

From the supplement of paper PMC6078165
